The values that follow come from paper PMC10587159, “Biosynthesis and engineering of the nonribosomal peptides with a C-terminal putrescine” (Nature Communications, 2023).

Non-standard residues stand in square brackets, D forms with d. Residues, ends and D or L forms follow the SMILES beside them. *: point of attachment. Lauroyl = CCCCCCCCCCCC(=O)*; NH(CH2)4NH2 = NCCCCN*

The nature of the data set: Product yields in crude extracts of wild type and mutant strains (HPLC-MS). As to conditions: Average of n = 3.

With `CCCCCCCCCCCC(=O)N[C@H](CC(C)C)C(=O)N[C@H](CC(N)=O)C(=O)N1CCC[C@H]1C(=O)N[C@H](C(=O)N[C@H](Cc1ccccc1)C(=O)N1CCC[C@H]1C(=O)N[C@@H](Cc1c[nH]c2ccccc12)C(=O)N[C@@H](C(=O)N[C@@H](C)C(=O)N[C@H](C)C(=O)N[C@@H](CO)C(=O)N[C@@H](C)C(=O)NCCCCN)C(C)C)C(C)C` [Compound 9, Glidonin I] (Lauroyl-[dL][dN]PV[dF]PW[dV]A[dA]SA-{NH(CH2)4NH2}), the “Relative yield of 9 and intermediate 9a between WT and mutants” value (from here on “Relative yield”) (mutant Del-C13A*T13TE) was 0; the “Relative yield” value (mutant Del-TE2) is listed as 34.1432; the “Relative yield” value (mutant Del-TE) is given as 0.8285; the “Relative yield” value (mutant P13-TE) was 0; the “Relative yield” value (strain WT) was 100.
